Experimental findings from article PMC7395175 are described below.

Protein sequences, listed by entry. Tags and fused reporters are not part of them. Residues count along the entry.
UniProt O08589, residues 21-92: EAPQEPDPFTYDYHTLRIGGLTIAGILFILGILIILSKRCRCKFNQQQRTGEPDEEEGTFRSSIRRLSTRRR

In the assay the target is T1, Na-pump binding site peptide (NBSP), biotinylated zDHHC5 peptide αα 233–257 (rat).
T1 sequence (peptide, N terminal biotin): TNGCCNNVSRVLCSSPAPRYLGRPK
Nature of the assay: pull-down; biotinylated NBSP added to whole rat heart homogenate lysed with FC-12, captured with streptavidin sepharose beads, Western blot; only the target purified. Background: Immunoblotting shows a protein as a band on a membrane.

No constants are given. Whether binding was seen depends on the method and setting. In cells and extracts the contact can be indirect.

As to “phospholemman (PLM), endogenous, rat heart (from UniProt O08589 21-92)”, the binding entry is reported as “no binding”.
